In the test the test system is DOPAC release in the rat prefrontal cortex. Put plainly: Microdialysis: DOPAC release in prefrontal cortex after I.P. administration. Type of test: in vivo. The conditions noted are these: hydrochloride. The protocol:
The aim of the study was to evaluate, using microdialysis, the effects of an intraperitoneal (I.P.) administration in rats of three different doses of SON-117 on dopamine and its metabolites, serotonin and its metabolite (5-HIAA), and norepinephrine levels in prefrontal cortex.
Thirty-two adult male Wistar rats were used for the whole study (4 groups of eight animals planned for the study, Table 1).
Surgery was performed on rats weighing about 300 g at the beginning of the experiments. Rats were anaesthetized with Ketamine (50 mg/kg) & Xylazine (15 mg/kg) by intramuscular administration. The animals were placed in a stereotaxic apparatus in the flat-skull position at a constant setting of −3.3 mm between ear bars and the incisor bar. The animals were treated with a local anesthesic (xylocaine 1%, Astra Zeneca) and an analgesic (Temgesic, from Schering Plough, 0.05 mg/kg, s.c.). A rostrocaudal midline incision was made with a lancet to expose the dorsal skull surface. The “stereotaxic zero” was defined by the Bregma in accordance with Paxinos and Watson's atlas (1986). A hole was drilled in the skull with a drill and the meninges were pierced with a sterile needle to implant a CMA12 guide cannula which later received the dialysis probe.
Coordinates used for implanting guide cannula in prefrontal cortex from Bregma were anteroposterior 3.7 mm, mediolateral 0.8 mm, and dorsoventral −2 mm (top of the probe was at −5 mm). The guide cannula was fixed to the skull with two stainless steel screws (1.88 mm outside diameter) anchored. An application of dental cement was added. A plastic collar allowed each animal to be tethered to a Swivel assembly of the CMA 120 awake animal system. Following surgery, rats were kept in individual cages and allowed to recover for a minimum of 3-5 days before the experimentation. The rats were handled and put in plastic bowl for 10 min at least every day to habituate the animals to their new environment for the dialysis. An I.P. administration with saline was also performed every day.
Dialysis probes (CMA12/3 mm, membrane, 20 kD cut-off, Carnegie Medicine, Stockholm, Sweden), were carefully washed before inserting into the guide cannula. The wash was performed with the artificial cerebrospinal fluid (aCSF) medium (NaCl 147 mM, KCl 2.7 mM, CaCl2 1.2 mM, MgCl2 0.85 mM) at room temperature. The dialysis system was then equilibrated at 20° C. at a perfusion rate of 1 μl/min with a Carnegie pump (CMA100). All catheters (FEP tubing, internal volume of 1.2 μl/10 cm, and tubing adaptors) used for microdialysis were treated in the same conditions.
The probes duly prepared were inserted into the guide cannula and the CMA120 Swivel assembly secured to the animal using a plastic collar. Flow through the dialysis probe with aCSF was maintained at a rate of 1 μl/min during the whole experimentation. The first four fractions (corresponding to 2 hours) were discarded to avoid the effects of parenchymal disturbance and to ensure that an approximate steady-state level was reached. Fractions were then collected over a period of 8.5 h during which time the animals remained quiet. The dialysates were automatically collected with an autosampler (microfraction collector CMA 140, Carnegie Medicin) and stored at −80° C. until analysis. […] Perfusion was then maintained for 7 hours with aCSF. The dialysates (30 μl) were collected into 300 μl vials, transferred into dry ice and then kept frozen (−80° C.) until analysis. Frozen samples were shipped to a partner for analysis. At the end of the microdialysis study, a PBS with colored ink was perfused through the probe in order to visualize the dialyzed area.
Catecholamine assay: Concentrations of dopamine, DOPAC, HVA, 5-HIAA, 5-HT, and norepinephrin were determined for each sample by HPLC coupled with electrochemical detection.

Several values for one entry are separate records, joined by “and”; a condition that tells them apart may be missing. Identical values can stand only once. Counter-ions that a name gives are not always drawn. The source gives many values for each of these; only a part stands here.

As for `Cc1nnc(-c2cc3c(OC[C@@H](O)CN4CCC(c5ccc(Cl)c(Cl)c5)CC4)cccc3o2)o1` [SON-117, (S)-1-(4-(3,4-dichlorophenyl)piperidino)-3-(2-(5-methyl-1,3,4-oxadiazol-2-yl)benzo(b)furan-4-yloxy)-2-propanol hydrochloride], the “DOPAC (% of respective basal), individual animal” value (from here on “DOPAC (% of respective basal)”) was 84.64 % of respective basal and 90.8 % of respective basal and 75.40 % of respective basal and 81.08 % of respective basal and 76.10 % of respective basal and 82.04 % of respective basal (0.1 mg/kg I.P., T0-T30 min, c2-c9 = R#13,14,20,19,25,26,31,32); 140.41 % of respective basal and 97.01 % of respective basal and 134.95 % of respective basal and 45.66 % of respective basal (0.1 mg/kg I.P., T6 h 30-T7 h, c2-c9 = R#13,14,20,19,25,26,31,32); 81.22 % of respective basal and 101.50 % of respective basal and 94.05 % of respective basal and 96.94 % of respective basal and 92.84 % of respective basal and 98.39 % of respective basal and 76.08 % of respective basal and 85.53 % of respective basal (0.1 mg/kg I.P., T-30 min-T0 (before administration), c2-c9 = R#13,14,20,19,25,26,31,32); 129.17 % of respective basal and 100.00 % of respective basal and 105.59 % of respective basal and 107.21 % of respective basal and 105.12 % of respective basal and 93.24 % of respective basal and 117.28 % of respective basal and 115.83 % of respective basal (0.1 mg/kg I.P., T-1 h 30-T-1 h (before administration), c2-c9 = R#13,14,20,19,25,26,31,32); 89.54 % of respective basal and 102.68 % of respective basal and 100.36 % of respective basal and 95.94 % of respective basal and 102.04 % of respective basal and 108.38 % of respective basal and 106.62 % of respective basal and 98.63 % of respective basal (0.1 mg/kg I.P., T-1 h-T-30 min (before administration), c2-c9 = R#13,14,20,19,25,26,31,32); 85.09 % of respective basal and 80.10 % of respective basal and 92.27 % of respective basal and 85.69 % of respective basal and 85.41 % of respective basal and 88.08 % of respective basal and 86.57 % of respective basal and 85.64 % of respective basal (0.3 mg/kg I.P., T0-T30 min, c2-c9 = R#11,12,18,23,29,30,17,24). Moreover, the “DOPAC (% of respective basal)” value by setting is: (0.3 mg/kg I.P., T30-T1 h, c2-c9 = R#11,12,18,23,29,30,17,24) 85.58 % of respective basal and 74.71 % of respective basal and 87.18 % of respective basal and 93.82 % of respective basal and 86.64 % of respective basal and 78.70 % of respective basal and 84.26 % of respective basal and 83.69 % of respective basal; (0.3 mg/kg I.P., T1 h 30-T2 h, c2-c9 = R#11,12,18,23,29,30,17,24) 87.35 % of respective basal and 114.57 % of respective basal and 107.81 % of respective basal and 96.27 % of respective basal and 90.51 % of respective basal and 51.10 % of respective basal and 190.48 % of respective basal and 79.29 % of respective basal; (0.3 mg/kg I.P., T1 h-T1 h 30, c2-c9 = R#11,12,18,23,29,30,17,24) 98.25 % of respective basal and 77.65 % of respective basal and 100.07 % of respective basal and 119.82 % of respective basal and 100.62 % of respective basal and 81.54 % of respective basal and 73.52 % of respective basal and 99.76 % of respective basal; (0.3 mg/kg I.P., T2 h 30-T3 h, c2-c9 = R#11,12,18,23,29,30,17,24) 76.55 % of respective basal and 75.99 % of respective basal and 85.84 % of respective basal and 96.38 % of respective basal and 83.69 % of respective basal and 85.18 % of respective basal and 85.42 % of respective basal and 81.06 % of respective basal; (0.3 mg/kg I.P., T2 h-T2 h 30, c2-c9 = R#11,12,18,23,29,30,17,24) 66.65 % of respective basal and 83.61 % of respective basal and 92.00 % of respective basal and 86.82 % of respective basal and 82.67 % of respective basal and 85.40 % of respective basal and 85.77 % of respective basal and 72.98 % of respective basal; (0.3 mg/kg I.P., T3 h 30-T4 h, c2-c9 = R#11,12,18,23,29,30,17,24) 89.58 % of respective basal and 80.38 % of respective basal and 137.29 % of respective basal and 79.66 % of respective basal and 97.63 % of respective basal and 77.03 % of respective basal and 99.67 % of respective basal. For the same molecule, the “DOPAC (% of respective basal)” value reads like this: (0.3 mg/kg I.P., T3 h-T3 h 30, c2-c9 = R#11,12,18,23,29,30,17,24) 85.17 % of respective basal and 87.70 % of respective basal and 87.86 % of respective basal and 71.48 % of respective basal and 91.76 % of respective basal and 88.62 % of respective basal and 73.02 % of respective basal; (0.3 mg/kg I.P., T4 h 30-T5 h, c2-c9 = R#11,12,18,23,29,30,17,24) 96.62 % of respective basal and 146.30 % of respective basal and 83.52 % of respective basal and 95.49 % of respective basal and 71.70 % of respective basal and 75.77 % of respective basal and 202.20 % of respective basal and 86.78 % of respective basal; (0.3 mg/kg I.P., T4 h-T4 h 30, c2-c9 = R#11,12,18,23,29,30,17,24) 110.76 % of respective basal and 90.58 % of respective basal and 82.07 % of respective basal and 109.53 % of respective basal and 101.69 % of respective basal and 85.15 % of respective basal and 91.12 % of respective basal and 83.07 % of respective basal; (0.3 mg/kg I.P., T5 h 30-T6 h, c2-c9 = R#11,12,18,23,29,30,17,24) 89.75 % of respective basal and 107.44 % of respective basal and 79.72 % of respective basal and 93.76 % of respective basal and 75.54 % of respective basal and 76.87 % of respective basal and 91.42 % of respective basal and 94.90 % of respective basal; (0.3 mg/kg I.P., T5 h-T5 h 30, c2-c9 = R#11,12,18,23,29,30,17,24) 43.91 % of respective basal and 74.34 % of respective basal and 91.63 % of respective basal and 88.32 % of respective basal and 75.80 % of respective basal and 83.53 % of respective basal and 101.20 % of respective basal and 80.44 % of respective basal; (0.3 mg/kg I.P., T6 h 30-T7 h, c2-c9 = R#11,12,18,23,29,30,17,24) 78.25 % of respective basal and 118.73 % of respective basal and 87.14 % of respective basal and 129.40 % of respective basal and 80.10 % of respective basal and 82.91 % of respective basal and 104.34 % of respective basal and 94.82 % of respective basal. Further, the “DOPAC (% of respective basal)” value was 83.76 % of respective basal and 110.08 % of respective basal and 82.62 % of respective basal and 114.80 % of respective basal and 86.77 % of respective basal and 87.31 % of respective basal and 94.36 % of respective basal and 118.84 % of respective basal (0.3 mg/kg I.P., T6 h-T6 h 30, c2-c9 = R#11,12,18,23,29,30,17,24); 92.03 % of respective basal and 92.17 % of respective basal and 94.06 % of respective basal and 84.92 % of respective basal and 100.16 % of respective basal and 98.43 % of respective basal and 89.23 % of respective basal and 91.73 % of respective basal (0.3 mg/kg I.P., T-30 min-T0 (before administration), c2-c9 = R#11,12,18,23,29,30,17,24).

Values taken from patent publication US20250109127A1, “METHODS OF USE OF PHENOXYPROPYLAMINE COMPOUNDS TO TREAT DEPRESSION” (Minerva Neurosciences, Inc., priority 2013, published 2025).
